Experimental data as given in PubChem BioAssay AID256 (DTP/NCI, 2004).
The list shows only some results of the screen, not a fair sample: it gathers tests that were run many times, whatever their T/C, doses with no T/C, and many T/C values between a quarter and a half above the control. Further doses and runs are listed elsewhere. T/C gives the treated animals as a percentage of the vehicle group. Some entries give survivors of the animals treated and no T/C: the source files T/C as zero there, which appears to mark a toxic dose or a test without result, not a measured value. Some doses without a T/C left all or most animals alive at the check, yet need not have been tolerated: survival well below the control is almost never listed, so the zero probably covers shortened survival too. Counts of survivors are from the toxicity check (mostly the fifth day) where no day follows; animals may have died later. Schedules are NCI's codes, taken here to give the interval after Q, in days (D) or hours (H), and the number of doses after X. Some entries hold several experiments; the values are given in rising order. For survival time, the PubChem record calls one and a half times the control and up active, and a quarter to a half above the control has no call in these data; cut-offs in other NCI protocols can differ.

System: CD2F1 mice, L1210 leukemia ip, survival T/C
Assay: NCI In Vivo Anticancer Drug Screen. Data for tumor model L1210 Leukemia (intraperitoneal) in CD2F1 (CDF1) mice
Settings: higher T/C = longer survival
Method in brief: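 Tumor-bearing mice (transplanted tumor) were split into treated and vehicle control groups, and the measured endpoint of each treated group was divided by that of its vehicle controls.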

[1] = T/C endpoint: mean survival time, dose: 200.0 mg/kg/injection, schedule: Q01DX009 (ip), vehicle: saline with Tween-80
[2] = T/C endpoint: mean survival time, dose: 400.0 mg/kg/injection, schedule: Q01DX009 (ip), vehicle: saline with Tween-80
[3] = T/C endpoint: mean survival time, dose: 300.0 mg/kg/injection, schedule: Q01DX001 (ip), vehicle: saline
[4] = T/C endpoint: mean survival time, dose: 200.0 mg/kg/injection, schedule: Q04DX003 (ip), vehicle: saline
[5] = T/C endpoint: mean survival time, dose: 400.0 mg/kg/injection, schedule: Q04DX003 (ip), vehicle: saline

For `C1CN2CN3CCN(CN1C3)C2`, the survivor count (T/C endpoint: mean survival time, dose: 200.0 mg/kg/injection, schedule: Q01DX009 (ip), vehicle: saline) was 2 of 6.

In the case of `NCC(OC1CCCCC1)C(Cl)(Cl)Cl` (configuration not stated), the survivor count (T/C endpoint: mean survival time, dose: 400.0 mg/kg/injection, schedule: Q04DX003 (ip), vehicle: saline with Tween-80) is reported as 0 of 6.

In the case of `COc1cc(NC(=O)Nc2cccc(Cl)c2)c(OC)cc1Cl`, the survivor count (T/C endpoint: mean survival time, dose: 200.0 mg/kg/injection, schedule: Q04DX002 (ip), vehicle: saline with Tween-80) is reported as 3 of 3.

For `Cc1nc(C(=O)O)c(C)c(=O)[nH]1`, the survivor count (T/C endpoint: mean survival time, dose: 400.0 mg/kg/injection, schedule: Q01DX005 (ip), vehicle: water) was 0 of 6.

For `CC(C)OP(=O)(OC(C)C)C1=C(P(=O)(OC(C)C)OC(C)C)C(F)(F)C(F)(F)C1(F)F`, the survivor count (T/C endpoint: mean survival time, dose: 75.0 mg/kg/injection, schedule: Q01DX001 (ip), vehicle: other) was 5 of 6, the survivor count (T/C endpoint: mean survival time, dose: 150.0 mg/kg/injection, schedule: Q01DX001 (ip), vehicle: other) was 1 of 6 and the survivor count (T/C endpoint: mean survival time, dose: 300.0 mg/kg/injection, schedule: Q01DX001 (ip), vehicle: other) was 0 of 6.

For `O=Cc1c(O)c2ccccc2[nH]c1=O`, the survivor count [1] was 2 of 6 and the survivor count (T/C endpoint: median survival time, dose: 200.0 mg/kg/injection, schedule: Q01DX009 (ip), vehicle: Klucel (hydroxypropylcellulose) (HPC)) was 0 of 6.

`COC(=O)c1ccccc1C=C(c1ccc([N+](=O)[O-])cc1)c1ccc([N+](=O)[O-])cc1` was tested, and the survivor count [2] was 2 of 6.

With `CCN(CC)CCn1[nH]c2c3ccc(=O)cc3sc3c(NCCN)ccc1c32` the T/C (T/C endpoint: median survival time, dose: 0.75 mg/kg/injection, schedule: Q01DX009 (ip), vehicle: water) was 144 % of control, the T/C (T/C endpoint: median survival time, dose: 1.56 mg/kg/injection, schedule: Q01DX005 (ip), vehicle: water) was 137 % of control and the survivor count (T/C endpoint: median survival time, dose: 24.0 mg/kg/injection, schedule: Q01DX005 (ip), vehicle: water) was 6 of 6. For the same compound, the survivor count (T/C endpoint: median survival time, dose: 25.0 mg/kg/injection, schedule: Q01DX005 (ip), vehicle: water) was 5 of 6 and 6 of 6.

For `c1ccc([P+](Cc2ccc3ccccc3n2)(c2ccccc2)c2ccccc2)cc1`, the survivor count (T/C endpoint: mean survival time, dose: 25.0 mg/kg/injection, schedule: Q01DX009 (ip), vehicle: saline) was 1 of 3.

For `CCOP(=O)(NCCCSC)OCC`, the survivor count (T/C endpoint: mean survival time, dose: 100.0 mg/kg/injection, schedule: Q01DX001 (ip), vehicle: saline with Tween-80) was 0 of 6, the survivor count (T/C endpoint: mean survival time, dose: 200.0 mg/kg/injection, schedule: Q01DX001 (ip), vehicle: saline with Tween-80) was 0 of 6 and the survivor count (T/C endpoint: mean survival time, dose: 400.0 mg/kg/injection, schedule: Q01DX001 (ip), vehicle: saline with Tween-80) was 0 of 6.

With `CCOC(=O)C(C)(Br)C(=O)OCC` the survivor count [1] was 2 of 6.

With `C[N+]12CCC34C5=CC(=O)C(=O)C=C5[N+]5(C)C(=O)CC6OCC=C(C1)C(CC32)C6C45` (configuration not stated) the survivor count (T/C endpoint: mean survival time, dose: 150.0 mg/kg/injection, schedule: Q01DX001 (ip), vehicle: saline) was 3 of 6 and the survivor count [3] was 2 of 6.

For `Nc1ncnc2c1ccn2C1OC2COP(=O)(O)OC2C1O` (configuration not stated), the survivor count (T/C endpoint: mean survival time, dose: 80.0 mg/kg/injection, schedule: Q01DX001 (ip), vehicle: saline) was 2 of 6.

For `CCN(CC)C(=O)N1C2CCC1CN(C)C2`, the survivor count (T/C endpoint: mean survival time, dose: 100.0 mg/kg/injection, schedule: Q04DX003 (ip), vehicle: saline) was 2 of 6, the survivor count [4] was 0 of 6 and the survivor count [5] was 0 of 6.

`NNC(=O)c1cc(Cl)cc(C(=O)NN)n1` was tested, and the survivor count (T/C endpoint: mean survival time, dose: 100.0 mg/kg/injection, schedule: Q01DX009 (ip), vehicle: saline with Tween-80) was 0 of 6, the survivor count (T/C endpoint: mean survival time, dose: 100.0 mg/kg/injection, schedule: Q04DX003 (ip), vehicle: saline sonified) was 5 of 6 and the survivor count [1] was 3 of 6. For the same compound, the survivor count (T/C endpoint: mean survival time, dose: 200.0 mg/kg/injection, schedule: Q04DX003 (ip), vehicle: saline sonified) was 4 of 6 and the survivor count (T/C endpoint: mean survival time, dose: 400.0 mg/kg/injection, schedule: Q04DX003 (ip), vehicle: saline sonified) was 1 of 6.

`CS(=O)(=O)Nc1ccc(C(=O)CCN2CCCCCC2)cc1` was tested, and the survivor count (T/C endpoint: median survival time, dose: 200.0 mg/kg/injection, schedule: Q01DX009 (ip), vehicle: saline) was 3 of 6 and the survivor count (T/C endpoint: median survival time, dose: 400.0 mg/kg/injection, schedule: Q01DX009 (ip), vehicle: saline) was 5 of 6.

In the case of `CC1(C)N=C(N)N=C(N)N1c1ccc(CNC(=O)Nc2cccc(S(=O)(=O)F)c2)cc1`, the T/C (T/C endpoint: mean survival time, dose: 12.5 mg/kg/injection, schedule: Q01DX009 (ip), vehicle: saline) is reported as 127 % of control and the T/C (T/C endpoint: mean survival time, dose: 50.0 mg/kg/injection, schedule: Q01DX009 (ip), vehicle: saline) is reported as 135 % of control.

In the case of `Cc1[se]c2ccccc2[n+]1C`, the survivor count [3] is reported as 2 of 6.

`CC(C)(CCC(=O)O)C(=O)O` was tested, and the survivor count [5] was 2 of 6.

With `CCNCC(=O)O[C@]1(CC)C(=O)OCc2c1cc1n(c2=O)Cc2cc3ccccc3nc2-1` the T/C (T/C endpoint: median survival time, dose: 15.0 mg/kg/injection, schedule: Q04DX002 (ip), vehicle: saline) was 127 % of control and the survivor count (T/C endpoint: median survival time, dose: 60.0 mg/kg/injection, schedule: Q04HX004 (iv), vehicle: dextrose) was 0 of 6.

For `COc1ccc2c(c1)CCN=C2CCN1C(=O)CCC1=O`, the survivor count [5] was 4 of 6.

With `Cc1ccc(CN(C)N=Nc2ccc(C(=O)O)cc2)cc1` the survivor count (T/C endpoint: mean survival time, dose: 400.0 mg/kg/injection, schedule: Q01DX009 (ip), vehicle: other) was 0 of 3.

With `CC(=O)Nc1ncc(CN2CCCCC2)s1` the survivor count (T/C endpoint: mean survival time, dose: 400.0 mg/kg/injection, schedule: Q04DX002 (ip), vehicle: Klucel (hydroxypropylcellulose) (HPC)) was 0 of 3.

`CC1(C)N=C(N)N=C(N)N1c1ccc(Cl)c(Cl)c1` was tested, and the survivor count (T/C endpoint: mean survival time, dose: 200.0 mg/kg/injection, schedule: Q01DX001 (ip), vehicle: Klucel (hydroxypropylcellulose) (HPC)) was 1 of 6 and the survivor count (T/C endpoint: mean survival time, dose: 400.0 mg/kg/injection, schedule: Q01DX001 (ip), vehicle: Klucel (hydroxypropylcellulose) (HPC)) was 0 of 6.

`CCN(CC)CCN1CC2C3C=CC(C3)C2C1` (configuration not stated) was tested, and the survivor count [1] was 0 of 6 and the survivor count [2] was 0 of 6.

With `C[n+]1ccn(CC(=O)c2ccccc2)c1` the survivor count [4] was 2 of 6 and the survivor count [5] was 0 of 6.
